Drawing on paper PMC4352044, this text covers binding for 1 substance.

For this experiment, the target named is T1, Scc3-6HA (budding yeast) (UniProt P40541).
T1 sequence: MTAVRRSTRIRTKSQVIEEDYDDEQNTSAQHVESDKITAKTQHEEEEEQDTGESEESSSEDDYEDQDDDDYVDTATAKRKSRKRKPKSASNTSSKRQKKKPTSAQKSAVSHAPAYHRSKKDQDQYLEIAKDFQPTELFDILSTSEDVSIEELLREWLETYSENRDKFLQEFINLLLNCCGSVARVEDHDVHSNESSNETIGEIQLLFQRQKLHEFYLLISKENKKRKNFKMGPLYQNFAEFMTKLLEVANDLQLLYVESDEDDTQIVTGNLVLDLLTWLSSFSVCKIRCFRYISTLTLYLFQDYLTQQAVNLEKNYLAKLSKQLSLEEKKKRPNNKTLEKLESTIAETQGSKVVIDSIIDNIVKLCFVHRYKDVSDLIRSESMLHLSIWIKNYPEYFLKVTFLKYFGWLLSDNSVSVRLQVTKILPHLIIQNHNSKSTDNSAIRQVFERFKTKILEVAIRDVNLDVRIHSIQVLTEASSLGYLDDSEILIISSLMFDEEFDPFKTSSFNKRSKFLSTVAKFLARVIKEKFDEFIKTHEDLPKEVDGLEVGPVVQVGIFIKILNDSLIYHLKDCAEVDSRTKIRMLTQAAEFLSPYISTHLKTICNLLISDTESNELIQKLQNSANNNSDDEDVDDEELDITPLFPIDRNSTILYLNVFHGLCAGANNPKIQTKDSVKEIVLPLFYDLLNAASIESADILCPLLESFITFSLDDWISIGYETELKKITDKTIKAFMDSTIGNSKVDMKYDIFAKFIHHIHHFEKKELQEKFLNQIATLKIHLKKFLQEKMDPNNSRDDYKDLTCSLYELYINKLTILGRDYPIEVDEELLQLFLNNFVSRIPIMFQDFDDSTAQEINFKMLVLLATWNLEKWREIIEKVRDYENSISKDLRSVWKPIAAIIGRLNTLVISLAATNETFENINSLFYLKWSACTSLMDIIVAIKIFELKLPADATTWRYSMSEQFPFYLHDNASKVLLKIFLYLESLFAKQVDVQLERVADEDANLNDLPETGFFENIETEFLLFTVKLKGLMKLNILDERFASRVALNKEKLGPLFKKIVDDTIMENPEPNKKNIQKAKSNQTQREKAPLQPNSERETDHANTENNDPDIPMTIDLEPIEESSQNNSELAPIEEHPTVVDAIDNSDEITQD
Put plainly: co-IP; anti-HA immunoprecipitation of Scc3-6HA (wild type or mutant) from yeast lysates, mid-log cells; IPH150 or IPH50 buffer (50 mM Tris pH 8.0, 150/50 mM NaCl, 5 mM EDTA, 0.5% NP-40, 1 mM DTT), 4°C, protein A/G agarose, Western blot of partners; also in wpl1Δ strains and after depletion of Pds5-3V5-AID with 1 mM IAA.

No constants are given. Whether binding was seen depends on the method and setting. Binding seen in cells or lysates may run through a third protein. Binding calls can cover weak binding; strength is not graded here.

With Wpl1-3V5 (budding yeast), the binding result is recorded as “binds”.
